Source: PubChem BioAssay AID504444 (National Center for Advancing Translational Sciences (NCATS), 2011)
About 7,500 (2.1%) of roughly 360,000 compounds were called active. The inconclusive results got no clear call from the source; some entries with a clear call stand among them for comparison. Calls follow the shape of the dose curve; as a rule, active = well fitted inhibition curve with a large enough effect; inconclusive = small, poorly fitted or top-dose-only effect, or effect the other way; inactive = flat fitted curve, though single readings scatter. Where the call is inconclusive, the potency comes from a doubtful curve fit.

assay: Nrf2 qHTS screen for inhibitors; conditions: A549 ARE-Fluc reporter, luciferase luminescence, 18-24 h; activity change, negative = inhibition: at 46 µM (top of the series); also: nearly all actives have a fitted effect of over 60% in size
In short: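 A549 ARE_Fluc cells, 5000/well, 5% FBS OPTI-MEM; compounds in dose-response, 18-24 h at 37 °C/5% CO2; CellTiter-Fluor viability read (Ex 405/Em 525), then BugLite luciferase luminescence = Nrf2 activity.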
% is scaled to controls: 0 for no effect and ±100 for the full control effect; potency is read from the fitted curve at half-maximal effect.

SMILES | Potency | activity change, negative = inhibition
CC(C)c1ccc(N(C(=O)c2snc(C(N)=O)c2N)C(C(=O)NCC2CCCO2)c2ccc(N(C)C)cc2)cc1 (centres undefined) | active: 18.4 µM | 
CCN(CC)CCN(C(=O)c1ccc2c(c1)OCCO2)c1nc2c(Cl)cccc2s1 | inactive | 
Cc1nn(Cc2c(F)c(F)c(F)c(F)c2F)c(C)c1NC(=O)c1ccc(COc2ccc(F)cc2)o1 | inconclusive: 29.1 µM [falling, single point] | 
O=[N+]([O-])c1cc(F)c2cccnc2c1O | inconclusive: 20.6 µM [falling, partial curve, poor fit] | 
Cc1ccc2nc(-c3ccc4c(c3)NC(=O)CO4)cn2c1 | inconclusive: 14.6 µM [activator, partial curve] | 
COc1ccccc1/C=C/C(=O)Nc1ccc2c(c1)OCCO2 | inconclusive: 0.411 µM [activator, full curve, poor fit] | 
CCC(C)c1ccc(NC(=O)C2CC3CCC2C3)cc1 (centres undefined) | inconclusive: 1.84 µM [activator, partial curve] | 
Cc1ccc(NC(=O)Cn2ccsc2=N)cc1S(=O)(=O)N(C)C | inconclusive: 32.6 µM [activator, single point] | 
O=C(Nc1ccc2nc3n(c(=O)c2c1)CCCCC3)c1ccccn1 | inconclusive: 1.16 µM [activator, full curve] | 
Cc1cc(=O)oc2cc(OC(C)C(=O)Nc3ccc(C(N)=O)cc3)ccc12 (centres undefined) | inconclusive: 16.4 µM [falling, partial curve, poor fit] | 
O=C(CN1CCN(c2ccccc2O)CC1)Nc1ccnn1C1CCCC1 | inconclusive: 25.9 µM [falling, partial curve, poor fit] | 
COCC(C)n1c(C)cc(C(=O)CSc2cc(C)c3ccccc3n2)c1C (centres undefined) | inconclusive: 23.1 µM [falling, single point] | 
O=C(NC1CCCCC1)C(c1cccs1)N(C(=O)C(F)(F)F)c1ccccc1 (centres undefined) | inconclusive: 20.6 µM [falling, single point] | 
O=C(Cn1c(=O)c2ccccc2n(CC(=O)Nc2ccc(F)cc2)c1=O)NCCc1ccccc1 | inconclusive: 0.82 µM [activator, full curve, poor fit] | 
COc1ccc(N2CCN(C(c3cccs3)C(C)NC(=O)c3ccc4c(c3)OCO4)CC2)cc1 (centres undefined) | inconclusive: 29.1 µM [falling, single point] | 
Cc1ccc(Cn2cnc3ccccc32)cc1C | inconclusive: 16.4 µM [falling, single point] | 
O=C(COc1ccccc1/C=C1\SC(=O)NC1=O)Nc1ccccc1 | inconclusive: 6.51 µM [falling, partial curve] | 
Cc1cc(S(=O)(=O)N2CCN(c3ccccc3F)CC2)ccc1-n1cnnn1 | inconclusive: 8.2 µM [falling, partial curve] | 
O=C(COC(=O)c1ccc[nH]c1=O)NCCc1ccc(Cl)cc1Cl | inconclusive: 0.116 µM [activator, full curve, poor fit] | 
CC(C)(C)NC(=O)C(=O)NNC(=O)c1cccc(F)c1 | inconclusive: 10.3 µM [activator, partial curve] | 
CCCOc1ccc2ccccc2c1/C=C1\SC(=O)NC1=O | inconclusive: 20.6 µM [falling, single point] | 
c1ccc2cc3c(NCCN4CCOCC4)ccnc3cc2c1 | inconclusive: 20.6 µM [falling, single point] | 

Arranged by count of non-hydrogen atoms (falling): part of the list above
SMILES | Potency | activity change, negative = inhibition
CC(C)c1ccc(N(C(=O)c2snc(C(N)=O)c2N)C(C(=O)NCC2CCCO2)c2ccc(N(C)C)cc2)cc1 (centres undefined) | active: 18.4 µM | 
Cc1nn(Cc2c(F)c(F)c(F)c(F)c2F)c(C)c1NC(=O)c1ccc(COc2ccc(F)cc2)o1 | inconclusive: 29.1 µM [falling, single point] | 
O=C(Cn1c(=O)c2ccccc2n(CC(=O)Nc2ccc(F)cc2)c1=O)NCCc1ccccc1 | inconclusive: 0.82 µM [activator, full curve, poor fit] | 
COc1ccc(N2CCN(C(c3cccs3)C(C)NC(=O)c3ccc4c(c3)OCO4)CC2)cc1 (centres undefined) | inconclusive: 29.1 µM [falling, single point] | 
CCN(CC)CCN(C(=O)c1ccc2c(c1)OCCO2)c1nc2c(Cl)cccc2s1 | inactive | 
Cc1cc(S(=O)(=O)N2CCN(c3ccccc3F)CC2)ccc1-n1cnnn1 | inconclusive: 8.2 µM [falling, partial curve] | 
COCC(C)n1c(C)cc(C(=O)CSc2cc(C)c3ccccc3n2)c1C (centres undefined) | inconclusive: 23.1 µM [falling, single point] | 
O=C(COc1ccccc1/C=C1\SC(=O)NC1=O)Nc1ccccc1 | inconclusive: 6.51 µM [falling, partial curve] | 
O=C(COC(=O)c1ccc[nH]c1=O)NCCc1ccc(Cl)cc1Cl | inconclusive: 0.116 µM [activator, full curve, poor fit] | 
Cc1ccc(NC(=O)Cn2ccsc2=N)cc1S(=O)(=O)N(C)C | inconclusive: 32.6 µM [activator, single point] | 
CCCOc1ccc2ccccc2c1/C=C1\SC(=O)NC1=O | inconclusive: 20.6 µM [falling, single point] | 
Cc1ccc2nc(-c3ccc4c(c3)NC(=O)CO4)cn2c1 | inconclusive: 14.6 µM [activator, partial curve] | 
CC(C)(C)NC(=O)C(=O)NNC(=O)c1cccc(F)c1 | inconclusive: 10.3 µM [activator, partial curve] | 
Cc1ccc(Cn2cnc3ccccc32)cc1C | inconclusive: 16.4 µM [falling, single point] | 
O=[N+]([O-])c1cc(F)c2cccnc2c1O | inconclusive: 20.6 µM [falling, partial curve, poor fit] | 

Later entries

SMILES | Potency | activity change, negative = inhibition
Cc1oc2ccc(O)c(CN3CCN(C)CC3)c2c1C(=O)Nc1cccc(C(F)(F)F)c1 | inactive | 
CC(C)(C)Sc1ccc(/C=N/O)cc1[N+](=O)[O-] | inconclusive: 25.9 µM [falling, partial curve] | 
O=C(c1cc(-c2ccc3c(c2)OCO3)on1)N1CCN(c2ccccc2)CC1 | inconclusive: 2.06 µM [activator, full curve, poor fit] | 
CCCNC(=O)NCCc1ccncc1 | inactive | 
CCCCN(CC)S(=O)(=O)c1ccc(C(=O)Nc2nnc(CSC)o2)cc1 | inconclusive: 16.4 µM [falling, single point] | 
CCCCCCCC(=O)NC(Nc1ccc(S(N)(=O)=O)cc1)C(Cl)(Cl)Cl (centres undefined) | inconclusive: 29.1 µM [falling, partial curve, poor fit] | 
CC(C)c1nc2n(n1)C1(CCCCC1)[C@@H]1CCCC[C@@H]1N2 | inactive | 
Cc1ccc(/C=C2/NC(=O)N(Cc3ccccc3)C2=O)o1 | inactive | 
CC1CC2(C)Oc3ccccc3CC2C(C)C1CNCCCN(C)C (centres undefined) | inactive | 
N#Cc1nc(Nc2ccc(C(F)(F)F)cc2)nc(NC2CCCC2)n1 | inconclusive: 29.1 µM [falling, single point] | 
CC(C)OC(=O)c1cccc2c1C(=O)c1ccccc1-2 | inactive | 
N#Cc1ccc(CN2CCN(C(=O)c3cccc(S(=O)(=O)N4CCCCCC4)c3)CC2)cc1 | inconclusive: 16.4 µM [falling, partial curve] | 
O=C(NC(Cc1ccccc1)C(=O)O)/C(=C/c1ccc(F)cc1)NC(=O)c1ccccc1 (centres undefined) | inactive | 
Cc1cccc(OCc2nnc(SCC(=O)N3CCN(c4ccccc4)CC3)o2)c1C | inconclusive: 32.6 µM [falling, single point] | 
COc1cccc(C(C(=O)NC2CCCC2)N(C(=O)c2ccco2)c2ccccc2)c1OC (centres undefined) | inconclusive: 10.3 µM [falling, single point] | 
Cc1ccccc1C(=O)N1CCN(c2ccc([N+](=O)[O-])c(NCc3ccco3)c2)CC1 | inconclusive: 23.1 µM [falling, single point] | 
c1cncc(-c2nc(NCC3COc4ccccc4O3)c3ccccc3n2)c1 (centres undefined) | inconclusive: 10.3 µM [falling, partial curve, poor fit] | 
CCN(CC)S(=O)(=O)c1ccc(NC(=O)c2cc(=O)[nH]c3ccccc23)cc1 | inactive | 
CCOC(=O)C1=C(C)NC(=O)NC1C(C)C (centres undefined) | inactive | 
O=C(NNc1ccc(C(F)(F)F)cc1[N+](=O)[O-])c1ccc(NS(=O)(=O)c2ccc(F)cc2)cc1 | inconclusive: 20.6 µM [falling, single point] | 
CCc1ccc(C(=O)CN(C#N)c2nc(C)cc(C)n2)cc1 | inconclusive: 11.2 µM [falling, single point] | 
Cn1c(=O)[nH]c(=O)c2c1nc(Br)n2Cc1ccccc1Cl | inconclusive: 1.84 µM [falling, full curve, poor fit] | 

Part of the list above, as tab-separated lines:
SMILES	Potency	activity change, negative = inhibition
COCC(C)n1c(C)cc(C(=O)CSc2cc(C)c3ccccc3n2)c1C (centres undefined)	inconclusive: 23.1 µM [falling, single point]	
O=C(NC1CCCCC1)C(c1cccs1)N(C(=O)C(F)(F)F)c1ccccc1 (centres undefined)	inconclusive: 20.6 µM [falling, single point]	

Additional records

SMILES | Potency | activity change, negative = inhibition
Cc1cc(C(=O)CSc2nnnn2-c2ccccc2)c(C)n1-c1ccc2c(c1)OCO2 | inconclusive: 20.6 µM [falling, partial curve, poor fit] | 
Cc1cccc(OCc2nnc(SCC(=O)Nc3cccc(C(=O)N4CCOCC4)c3)n2C)c1 | inconclusive: 18.4 µM [falling, partial curve, poor fit] | 
COc1cc2c(cc1OC)CN(C(=O)c1ccco1)CC2 | inconclusive: 13 µM [falling, partial curve] | 
CCOC(=O)c1cnc(-n2nc(C)cc2C)nc1Nc1cccc(C(=O)O)c1 | inactive | 
CCCNC(=O)C(CC)n1nc(CC)n2c(cc3oc(C)cc32)c1=O (centres undefined) | inactive | 
CCOc1ccc(/C=N/NC(=O)Cc2csc(Nc3cccc(C(F)(F)F)c3)n2)cc1 | inconclusive: 23.1 µM [falling, single point] | 
COc1cccc(C(=O)c2cn(CC(=O)NCCc3ccccc3)c3nc(C)ccc3c2=O)c1 | inconclusive: 25.9 µM [activator, partial curve, poor fit] | 
CCCc1ccc(C(=O)O/N=C(\N)c2ccccn2)cc1 | inconclusive: 29.1 µM [falling, single point] | 
Cc1ccc(C(C(=O)NC2CCCCC2)N(C(=O)c2csnn2)C2CC2)cc1 (centres undefined) | inconclusive: 23.1 µM [falling, single point] | 
COCCCN1CN=C(Nc2nc3ccccc3o2)NC1 | inconclusive: 20.6 µM [activator, partial curve] | 
O=C(Nc1cc(Oc2ccccc2)cc([N+](=O)[O-])c1)C12CC3CC(C1)CC(n1cnc(Cl)n1)(C3)C2 | inconclusive: 14.6 µM [falling, partial curve] | 
CCOC(=O)c1cc2c(=O)n3ccccc3nc2n(CC2CCCO2)c1=NC(=O)c1ccc(OC)cc1OC (centres undefined) |  | inactive: -13.4% [at 9.27 µM]
COc1cc(NC(=O)COCc2cc(-c3ccc(F)cc3)on2)cc(OC)c1OC | inconclusive: 29.1 µM [falling, single point] | 
COc1ccccc1NS(=O)(=O)c1ccc2oc(SC(C)C(=O)N3CCNC3=O)nc2c1 (centres undefined) | inconclusive: 20.6 µM [falling, partial curve, poor fit] | 
Cc1cc(NC(=O)C2CC(=O)N(c3cccc(Cl)c3)C2)no1 (centres undefined) | inconclusive: 32.6 µM [falling, single point] | 
Nc1nonc1-n1nnc(C(=O)N/N=C/c2ccncc2)c1-c1ccccc1 | inconclusive: 3.26 µM [activator, full curve, poor fit] | 
COc1ccc(/C=N/NC(=O)c2cccnc2)cc1COc1ccc(NC(C)=O)cc1 | inconclusive: 29.1 µM [activator, single point] | 
COc1cc(-c2nnc(SCc3c(F)cccc3Cl)o2)cc(OC)c1OC | inconclusive: 32.6 µM [falling, single point] | 
C=CCn1c(Cc2ccccc2)nc2c(cnn2-c2ccccc2)c1=O | inconclusive: 18.4 µM [falling, single point] | 
CC(C)(C)c1ccc(C(=O)Nc2ccc(F)cc2)s1 | inconclusive: 13 µM [activator, partial curve] | 
